Literature values as cited in patent US20230172912A1, “COMPOUNDS FOR TREATING PNEUMONIA, SEPSIS, AND CORONAVIRUS INFECTION” (HEIDELBERG IMMUNOTHERAPEUTICS GMBH, priority 2020, published 2023).
At least one compound was matched to its structure with a doubt left.

Test system: severe COVID-19
Settings: cited from earlier work

Compound: CCC(CC)COC(=O)[C@H](C)N[P@](=O)(OC[C@H]1O[C@@](C#N)(c2ccc3c(N)ncnn23)[C@H](O)[C@@H]1O)Oc1ccccc1 [remdesivir]
- mortality of patients who required invasive mechanical ventilation (6 of 34 patients): 18%
- patients with worsening (8 of 53 patients, 6-point ordinal scale): 15%
- patients with improvement in oxygen support (36 of 53 patients, 6-point ordinal scale): 68%
- mortality (median follow-up of 18 days): 13%
